Source: US20180326084A1

What was measured:
[1] = biological target: human AXL with a mouse ECD (p33-HAMm-AXL) (human-mouse chimera (mouse ECD, human remainder)); assay: flow cytometry, 1 µg/mL antibody, transfected HEK293F cells
[2] = biological target: human AXL with a mouse ECD (p33-HAMm-AXL) (human-mouse chimera (mouse ECD, human remainder)); assay: flow cytometry, HEK293T cells with human AXL carrying mouse ECD
[3] = biological target: human AXL with a cynomolgus monkey extracellular domain (ECD) (cynomolgus monkey (Macaca fascicularis); human); assay: flow cytometry, HEK293T cells with human AXL carrying cynomolgus ECD
[4] = biological target: human AXL with a cynomolgus monkey extracellular domain (ECD) (cynomolgus monkey (Macaca fascicularis); human); assay: flow cytometry, HEK293 cells transfected with human AXL carrying the cynomolgus ECD
[5] = biological target: human AXL with a mouse ECD (p33-HAMm-AXL) (human-mouse chimera (mouse ECD, human remainder)); assay: flow cytometry, HEK293 cells transfected with human AXL carrying the mouse ECD

Measured: binding

B1: IgG1-AXL-183 (antibody, V domains shown)
VH: QVQLQQWGAGLLKPSETLSLTCAVYGGSFSGYYWSWIRQPPGKGLEWIGEINQSGSTNYNPSLKSRVTISVDTSKNQFSLKLSSVTAADTSVYYCASGNWDHFFDYWGQGTLVTVSS
VL: DIQMTQSPSSVSASVGDRVTITCRASQGISSWLAWYQHKPGKAPKLLIYATSSLQSGVTSRFSGSGSGTDFTLTISSLQPEDFATYYCQQAKSFPWTFGQGTKVEIK
binds: all assays above

B2: IgG1-AXL-183-N52Q (antibody, V domains shown)
VH: B1 VH with N52Q
VL: B1 VL
binds: [2] | [3] | [4]

B3: IgG1-AXL-733 (antibody, V domains shown)
VH: QVQLVESGGGVVQPGRSLRLSCAASGFSFSTYAMHWVRQAPGKGLEWVAVISYDGDNKYSADSVKGRFTISRDNSKNTLYLQMNSLRAEDTAVYYCARGRKLGIDAFDIWGQGTMVTVSS
VL: AIQLTQSPSSLSASVGDRVTITCRASQGISSALAWYQQKPGKAPKLLIYDASSLESGVPSRFSGSGSGTDFTLTISGLQPEDFATYYCQQFNSYPFTFGPGTKVDIK
binds: [3] | [4]

B4: IgG1-AXL-148 (antibody, V domains shown)
VH: EVQLLESGGGLVQPGGSLRLSCAASGFTFSSYAMTWVRQAPGKGLEWVSAISISGGSTFYADSVKGRFTISRDNSKNTLYLQMNSLRAEDTAVYYCRGYSGYVYDAFDFWGQGTMVTVSS
VL: DIQMTQSPSSLSASVGDRVTITCRASQGISNWLAWYQQKPEKAPKSLIYAASSLQSGVPSRFSGSGSGTDFTLTISSLQPEDFATYYCQQYNSYPLTFGGGTKVEIK
binds: [3] | [4]

Changes are numbered by the printed parent chain. Numbers in names are those of the source. Results are given in words; binding and its absence hold for the method and conditions named. A result given as binding can be weak or reduced; the word gives no strength.
